Results published in patent publication US20200157226A1 (DRAGONFLY THERAPEUTICS, published 2020).
These are yes or no findings as the source states them, for the method shown. Some entries that bind do so weakly or less than the wild type.

By UniProt entry, the sequences of proteins in these tests, tags left out. Where a name states a change or a piece, a line headed by the entry shows the natural chain unless it says otherwise.
UniProt P26718: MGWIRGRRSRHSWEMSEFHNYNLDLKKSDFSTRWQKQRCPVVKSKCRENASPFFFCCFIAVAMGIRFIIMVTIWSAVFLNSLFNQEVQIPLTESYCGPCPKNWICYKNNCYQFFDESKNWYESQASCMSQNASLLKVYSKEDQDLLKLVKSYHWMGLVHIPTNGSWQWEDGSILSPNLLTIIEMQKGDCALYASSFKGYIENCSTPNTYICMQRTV

Tests used:
[1] = target: T1, 5T4 expressed on human cancer cell lines (human, UniProt Q13641 32-420); experiment: flow cytometry on BxPC3 cells
T1 construct: the assays used endogenous 5T4 on BxPC3, H146, H1975, HCT116, MCF7 and N87 cells; also called tumor-associated 5T4 antigen; human trophoblast glycoprotein 5T4
T1 sequence: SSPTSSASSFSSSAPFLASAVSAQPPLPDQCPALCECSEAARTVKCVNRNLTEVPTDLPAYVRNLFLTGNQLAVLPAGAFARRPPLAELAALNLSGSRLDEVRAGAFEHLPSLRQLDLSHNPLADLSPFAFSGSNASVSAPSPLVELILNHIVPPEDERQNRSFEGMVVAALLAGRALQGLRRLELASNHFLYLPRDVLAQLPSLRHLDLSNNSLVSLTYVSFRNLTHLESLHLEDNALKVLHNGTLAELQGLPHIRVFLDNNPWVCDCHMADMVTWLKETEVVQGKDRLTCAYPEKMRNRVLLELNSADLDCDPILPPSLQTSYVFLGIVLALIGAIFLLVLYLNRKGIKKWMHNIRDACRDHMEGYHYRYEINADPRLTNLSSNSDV
Method: (§1) Human cancer cell lines (BxPC3, H146, H1975, HCT116, MCF7 and N87) expressing the tumor-associated 5T4 antigen were used to assay the binding of 5T4-targeting TriNKETs to the antigen. In separate experiments, the TriNKETs or the parental anti-5T4 monoclonal antibodies were incubated with the each of the cell lines, and the binding of the TriNKETs or anti-5T4 monoclonal antibodies to the cells was detected using fluorophore-conjugated anti-human IgG secondary antibodies. Flow cytometry was used to analyze the binding of the TriNKETs or anti-5T4 monoclonal antibodies to the cells, and fold-over-background (FOB) was calculated by normalizing the mean fluorescence intensity (MFI) to human recombinant IgG1 staining control.

[2] = target: T1, 5T4 expressed on human cancer cell lines; experiment: flow cytometry on N87 cells
[3] = target: T1, 5T4 expressed on human cancer cell lines; experiment: flow cytometry on BxPC3, H146, H1975, HCT116, MCF7 and N87 cells
[4] = target: human NKG2D expressed on cells (primary human NK cells; EL4 mouse lymphoma cell lines engineered to express human NKG2D) (human) (UniProt P26718); experiment: flow cytometry on primary human NK cells
[5] = target: T1, 5T4 expressed on human cancer cell lines; experiment: flow cytometry on 5T4-expressing human cancer cell lines
Method: as §1

[6] = target: human NKG2D expressed on cells (primary human NK cells; EL4 mouse lymphoma cell lines engineered to express human NKG2D) (human) (UniProt P26718); experiment: flow cytometry on EL4 cells expressing human NKG2D

Measured: binding

B1: A49-TriNKET-5T4R (bispecific antibody, V domains shown)
VH 1: EVQLVESGGGLVKPGGSLRLSCAASGFTFSSYSMNWVRQAPGKGLEWVSSISSSSSYIYYADSVKGRFTISRDNAKNSLYLQMNSLRAEDTAVYYCARGAPMGAAAGWFDPWGQGTLVTVSS
VL 1: DIQMTQSPSSVSASVGDRVTITCRASQGISSWLAWYQQKPGKAPKLLIYAASSLQSGVPSRFSGSGSGTDFTLTISSLQPEDFATYYCQQGVSFPRTFGGGTKVEIK
VH 2: EVHLLESGGGLVHPGGSLRLSCAASGFTFRSDAMHWVRQAPGKGLEWVSGVSGSGGSPYYADSVKGRFTISRDDSKTTLYLQMNSLRAEDTAVYYCATGGSIAGSYYYYPMDVWGQGTTVTVSS
VL 2: DIQMTQSPSSLSASVGDRVTITCQASQDISNYLNWYQQKPGKAPKLLIYAASTLQIGVPSRFSGSGSGTDFTFTISSLQPEDFATYYCQQANSFPLTFGGGTKVEIK
binds: all assays above

B2: A49-TriNKET-5T4A (bispecific antibody, V domains shown)
VH 1: EVQLVESGGGLVKPGGSLRLSCAASGFTFSSYSMNWVRQAPGKGLEWVSSISSSSSYIYYADSVKGRFTISRDNAKNSLYLQMNSLRAEDTAVYYCARGAPMGAAAGWFDPWGQGTLVTVSS
VL 1: DIQMTQSPSSVSASVGDRVTITCRASQGISSWLAWYQQKPGKAPKLLIYAASSLQSGVPSRFSGSGSGTDFTLTISSLQPEDFATYYCQQGVSFPRTFGGGTKVEIK
VH 2: EVQLVESGGGLVQPGGSLRLSCAASGFTFSNYWMNWVRQAPGKGLEWVGEIRLKSDKYATYYAESVKGRFTISRDDSKNSLYLQMNNLKTEDTGVYYCARRRGYYGSAYGMDYWGQGTLVTVSS
VL 2: DIQMTQSPSSLSASVGDRVTITCKASQDINSYLSWFQQKPGKAPKILIYRANRLVDGVPSRFSGSGSGKDFTFTISSLQPEDIATYYCLQYDFLPLTFGGGTKVEIK
not listed: [5]
binds: all other assays above
